Test results: the supplement of paper PMC11732987, “Enantioselective OTUD7B fragment discovery through chemoproteomics screening and high-throughput optimisation” (Communications Chemistry, 2025)
Some of the results follow. The data scatter; read single values as rough.

The chains behind the UniProt entries cited, without tags or fusion partners. Where a name states a change or a piece, a line headed by the entry shows the natural chain unless it says otherwise. Residues count along the entry.
UniProt Q92614: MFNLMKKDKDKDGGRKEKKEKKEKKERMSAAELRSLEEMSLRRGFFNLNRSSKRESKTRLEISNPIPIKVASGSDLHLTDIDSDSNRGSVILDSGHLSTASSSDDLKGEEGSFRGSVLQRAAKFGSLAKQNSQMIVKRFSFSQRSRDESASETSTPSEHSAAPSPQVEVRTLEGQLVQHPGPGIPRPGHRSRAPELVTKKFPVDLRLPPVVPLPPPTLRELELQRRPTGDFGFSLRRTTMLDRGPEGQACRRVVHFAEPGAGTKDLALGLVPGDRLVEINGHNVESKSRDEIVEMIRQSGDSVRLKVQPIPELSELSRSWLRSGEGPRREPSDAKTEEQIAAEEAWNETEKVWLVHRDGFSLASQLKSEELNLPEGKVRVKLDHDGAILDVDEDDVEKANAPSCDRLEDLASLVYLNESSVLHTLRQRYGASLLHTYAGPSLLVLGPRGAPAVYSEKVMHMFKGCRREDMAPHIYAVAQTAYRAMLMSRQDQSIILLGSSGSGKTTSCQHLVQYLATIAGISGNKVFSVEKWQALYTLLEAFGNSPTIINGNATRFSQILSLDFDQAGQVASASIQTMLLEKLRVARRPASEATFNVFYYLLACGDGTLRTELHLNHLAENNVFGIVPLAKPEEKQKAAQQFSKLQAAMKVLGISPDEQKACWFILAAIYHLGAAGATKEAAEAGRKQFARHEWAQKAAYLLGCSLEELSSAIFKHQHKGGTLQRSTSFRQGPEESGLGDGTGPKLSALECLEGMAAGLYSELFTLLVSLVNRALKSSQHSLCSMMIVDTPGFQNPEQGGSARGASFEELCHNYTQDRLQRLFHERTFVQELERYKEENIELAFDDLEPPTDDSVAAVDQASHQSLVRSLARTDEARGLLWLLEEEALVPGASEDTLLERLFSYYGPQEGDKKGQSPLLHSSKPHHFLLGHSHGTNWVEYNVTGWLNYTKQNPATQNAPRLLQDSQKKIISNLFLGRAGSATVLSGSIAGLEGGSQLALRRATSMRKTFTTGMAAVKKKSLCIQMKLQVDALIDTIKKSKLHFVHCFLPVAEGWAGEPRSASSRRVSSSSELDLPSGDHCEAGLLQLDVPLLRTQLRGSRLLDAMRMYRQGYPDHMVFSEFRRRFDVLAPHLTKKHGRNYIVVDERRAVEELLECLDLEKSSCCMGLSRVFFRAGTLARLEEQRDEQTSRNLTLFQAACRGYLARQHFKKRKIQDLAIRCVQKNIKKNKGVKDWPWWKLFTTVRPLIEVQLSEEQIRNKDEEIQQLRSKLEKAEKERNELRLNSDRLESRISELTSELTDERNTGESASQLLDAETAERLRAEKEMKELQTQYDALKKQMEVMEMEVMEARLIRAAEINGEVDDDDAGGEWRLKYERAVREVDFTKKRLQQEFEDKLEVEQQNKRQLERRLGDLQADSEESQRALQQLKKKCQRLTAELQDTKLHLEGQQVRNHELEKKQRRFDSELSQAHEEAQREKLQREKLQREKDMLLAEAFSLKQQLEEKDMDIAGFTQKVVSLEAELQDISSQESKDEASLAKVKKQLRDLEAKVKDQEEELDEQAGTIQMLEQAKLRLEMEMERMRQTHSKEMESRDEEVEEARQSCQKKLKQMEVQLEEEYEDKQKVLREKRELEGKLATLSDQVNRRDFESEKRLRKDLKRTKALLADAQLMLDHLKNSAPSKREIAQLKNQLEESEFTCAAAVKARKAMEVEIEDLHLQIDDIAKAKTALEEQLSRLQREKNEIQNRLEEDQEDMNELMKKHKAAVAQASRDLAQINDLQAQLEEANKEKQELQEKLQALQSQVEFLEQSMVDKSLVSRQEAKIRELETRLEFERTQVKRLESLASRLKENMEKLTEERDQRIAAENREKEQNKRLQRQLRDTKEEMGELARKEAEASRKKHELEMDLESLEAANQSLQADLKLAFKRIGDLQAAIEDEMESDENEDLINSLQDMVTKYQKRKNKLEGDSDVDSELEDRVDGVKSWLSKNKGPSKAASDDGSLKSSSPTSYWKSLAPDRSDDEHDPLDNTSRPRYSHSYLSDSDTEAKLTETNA
UniProt Q13615: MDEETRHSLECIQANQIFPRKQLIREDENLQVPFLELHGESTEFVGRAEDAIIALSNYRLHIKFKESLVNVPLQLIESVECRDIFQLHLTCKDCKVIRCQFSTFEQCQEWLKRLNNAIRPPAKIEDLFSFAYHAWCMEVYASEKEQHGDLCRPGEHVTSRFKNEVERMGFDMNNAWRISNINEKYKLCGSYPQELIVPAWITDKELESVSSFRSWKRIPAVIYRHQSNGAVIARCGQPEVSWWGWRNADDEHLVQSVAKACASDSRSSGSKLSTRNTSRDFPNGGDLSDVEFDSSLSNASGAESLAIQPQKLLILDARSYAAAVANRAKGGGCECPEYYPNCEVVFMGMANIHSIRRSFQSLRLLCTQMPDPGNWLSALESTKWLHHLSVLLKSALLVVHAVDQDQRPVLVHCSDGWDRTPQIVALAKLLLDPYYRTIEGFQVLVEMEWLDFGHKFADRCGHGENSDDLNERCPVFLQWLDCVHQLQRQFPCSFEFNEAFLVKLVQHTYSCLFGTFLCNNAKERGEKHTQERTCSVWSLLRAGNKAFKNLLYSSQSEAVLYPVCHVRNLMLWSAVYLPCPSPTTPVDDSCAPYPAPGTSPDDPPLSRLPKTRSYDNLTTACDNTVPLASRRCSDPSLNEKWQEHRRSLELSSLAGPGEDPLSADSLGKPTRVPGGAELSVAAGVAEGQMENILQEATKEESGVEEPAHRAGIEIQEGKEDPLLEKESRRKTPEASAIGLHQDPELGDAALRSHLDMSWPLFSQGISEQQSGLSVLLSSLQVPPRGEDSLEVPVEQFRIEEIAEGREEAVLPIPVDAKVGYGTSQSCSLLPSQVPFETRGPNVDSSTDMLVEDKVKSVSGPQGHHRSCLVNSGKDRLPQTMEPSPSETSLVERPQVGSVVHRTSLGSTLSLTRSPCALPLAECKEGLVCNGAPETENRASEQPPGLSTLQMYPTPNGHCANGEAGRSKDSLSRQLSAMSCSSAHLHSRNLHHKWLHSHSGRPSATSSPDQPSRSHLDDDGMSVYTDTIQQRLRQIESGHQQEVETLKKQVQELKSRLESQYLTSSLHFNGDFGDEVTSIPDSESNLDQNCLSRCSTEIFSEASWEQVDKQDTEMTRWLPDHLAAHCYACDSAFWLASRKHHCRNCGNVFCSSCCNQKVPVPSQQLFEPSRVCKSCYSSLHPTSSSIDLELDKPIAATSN
UniProt Q13330: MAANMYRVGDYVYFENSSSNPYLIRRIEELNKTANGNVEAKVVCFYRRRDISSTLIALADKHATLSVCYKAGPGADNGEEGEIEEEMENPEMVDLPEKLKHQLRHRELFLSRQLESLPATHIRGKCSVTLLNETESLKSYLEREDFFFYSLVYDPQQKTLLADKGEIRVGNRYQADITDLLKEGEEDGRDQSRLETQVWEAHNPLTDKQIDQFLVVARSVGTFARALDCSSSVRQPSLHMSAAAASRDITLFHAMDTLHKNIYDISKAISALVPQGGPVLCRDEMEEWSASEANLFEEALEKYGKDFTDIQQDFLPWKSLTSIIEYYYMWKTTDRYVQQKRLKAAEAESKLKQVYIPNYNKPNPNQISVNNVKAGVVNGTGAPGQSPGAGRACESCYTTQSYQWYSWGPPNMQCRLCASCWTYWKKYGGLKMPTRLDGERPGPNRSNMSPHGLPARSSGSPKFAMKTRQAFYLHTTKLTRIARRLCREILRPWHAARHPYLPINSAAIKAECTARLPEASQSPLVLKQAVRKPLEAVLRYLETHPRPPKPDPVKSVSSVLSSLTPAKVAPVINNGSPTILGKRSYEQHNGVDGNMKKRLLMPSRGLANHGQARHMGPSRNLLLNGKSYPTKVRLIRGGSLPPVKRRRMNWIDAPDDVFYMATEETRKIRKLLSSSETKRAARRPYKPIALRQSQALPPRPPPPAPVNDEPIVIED
UniProt Q9UHQ1, 249-271: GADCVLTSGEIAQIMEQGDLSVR
UniProt Q13459: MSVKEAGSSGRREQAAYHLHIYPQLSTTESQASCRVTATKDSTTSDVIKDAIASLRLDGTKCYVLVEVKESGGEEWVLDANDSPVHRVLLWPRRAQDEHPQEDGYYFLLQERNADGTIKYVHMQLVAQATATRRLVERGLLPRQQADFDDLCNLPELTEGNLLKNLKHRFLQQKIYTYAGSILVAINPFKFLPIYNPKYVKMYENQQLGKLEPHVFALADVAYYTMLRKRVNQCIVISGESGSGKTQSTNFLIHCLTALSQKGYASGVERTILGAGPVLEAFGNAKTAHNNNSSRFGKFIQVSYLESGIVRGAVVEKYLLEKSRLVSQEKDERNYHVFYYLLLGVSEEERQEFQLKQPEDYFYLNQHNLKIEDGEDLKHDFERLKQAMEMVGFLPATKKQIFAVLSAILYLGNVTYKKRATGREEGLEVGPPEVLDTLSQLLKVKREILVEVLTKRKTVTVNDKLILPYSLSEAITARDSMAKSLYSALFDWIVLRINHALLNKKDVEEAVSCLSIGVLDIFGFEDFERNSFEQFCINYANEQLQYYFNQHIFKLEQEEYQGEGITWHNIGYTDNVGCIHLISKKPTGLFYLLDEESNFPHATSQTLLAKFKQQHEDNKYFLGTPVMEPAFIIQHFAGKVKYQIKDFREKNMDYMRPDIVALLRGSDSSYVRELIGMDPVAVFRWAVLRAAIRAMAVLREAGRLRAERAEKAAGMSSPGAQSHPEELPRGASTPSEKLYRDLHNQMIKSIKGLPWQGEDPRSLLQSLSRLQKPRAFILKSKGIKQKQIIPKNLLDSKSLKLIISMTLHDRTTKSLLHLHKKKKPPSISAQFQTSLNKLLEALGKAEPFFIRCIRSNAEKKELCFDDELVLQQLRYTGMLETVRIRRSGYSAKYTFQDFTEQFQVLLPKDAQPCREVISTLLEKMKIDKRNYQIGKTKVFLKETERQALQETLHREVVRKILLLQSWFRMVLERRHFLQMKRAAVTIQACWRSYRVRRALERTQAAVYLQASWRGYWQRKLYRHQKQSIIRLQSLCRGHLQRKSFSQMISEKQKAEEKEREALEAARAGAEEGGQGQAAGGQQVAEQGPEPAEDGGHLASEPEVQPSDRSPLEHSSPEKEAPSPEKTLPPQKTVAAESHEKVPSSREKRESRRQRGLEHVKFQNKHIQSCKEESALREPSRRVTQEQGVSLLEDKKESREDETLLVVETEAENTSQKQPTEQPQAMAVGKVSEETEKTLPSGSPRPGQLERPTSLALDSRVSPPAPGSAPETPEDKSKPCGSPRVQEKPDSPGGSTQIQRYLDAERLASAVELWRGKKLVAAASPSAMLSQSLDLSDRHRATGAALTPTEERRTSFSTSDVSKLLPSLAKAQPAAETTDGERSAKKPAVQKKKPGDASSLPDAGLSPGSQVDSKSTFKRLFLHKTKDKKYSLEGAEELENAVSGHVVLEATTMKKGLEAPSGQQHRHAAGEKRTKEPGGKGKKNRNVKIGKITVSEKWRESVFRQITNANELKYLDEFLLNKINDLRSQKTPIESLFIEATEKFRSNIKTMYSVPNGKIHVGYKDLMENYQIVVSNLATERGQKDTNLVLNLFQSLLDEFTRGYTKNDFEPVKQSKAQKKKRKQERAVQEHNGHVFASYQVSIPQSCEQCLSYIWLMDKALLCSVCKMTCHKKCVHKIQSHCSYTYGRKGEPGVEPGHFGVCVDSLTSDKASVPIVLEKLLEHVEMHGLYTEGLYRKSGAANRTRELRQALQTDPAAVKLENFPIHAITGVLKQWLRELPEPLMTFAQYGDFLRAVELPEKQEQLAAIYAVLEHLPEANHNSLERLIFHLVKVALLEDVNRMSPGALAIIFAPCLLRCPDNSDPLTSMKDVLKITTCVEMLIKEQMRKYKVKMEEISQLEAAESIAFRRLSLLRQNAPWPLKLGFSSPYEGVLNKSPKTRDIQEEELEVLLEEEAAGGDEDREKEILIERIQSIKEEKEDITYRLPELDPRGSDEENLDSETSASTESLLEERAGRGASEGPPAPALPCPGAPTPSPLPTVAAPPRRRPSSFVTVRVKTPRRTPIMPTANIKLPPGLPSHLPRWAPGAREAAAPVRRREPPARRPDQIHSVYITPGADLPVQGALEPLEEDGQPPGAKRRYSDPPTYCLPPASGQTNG
UniProt Q2M296, 252-277: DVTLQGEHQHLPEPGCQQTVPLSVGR
UniProt Q9H4K7, 169-190: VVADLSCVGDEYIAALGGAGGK
UniProt Q147X3: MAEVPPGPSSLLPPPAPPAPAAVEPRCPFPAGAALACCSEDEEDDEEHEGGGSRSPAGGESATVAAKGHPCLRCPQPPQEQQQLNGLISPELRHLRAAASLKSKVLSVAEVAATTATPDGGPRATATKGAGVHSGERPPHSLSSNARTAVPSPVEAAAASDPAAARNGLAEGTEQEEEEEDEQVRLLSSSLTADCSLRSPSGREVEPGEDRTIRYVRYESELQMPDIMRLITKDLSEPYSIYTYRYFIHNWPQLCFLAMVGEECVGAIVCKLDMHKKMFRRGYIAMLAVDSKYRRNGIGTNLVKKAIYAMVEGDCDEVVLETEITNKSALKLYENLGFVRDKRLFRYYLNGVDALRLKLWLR

compound: ClCC(=O)N[C@@H]1CCCc2ccccc12; assay: log2 mean competition ratio of IA-DTB cysteine labelling (DMSO/compound) (log2 ratio); higher = stronger cysteine engagement by compound; settings: 50 µM; treatment time: 4 h; cell line lysate: HEK293T
Protocol: (§1)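 IA-DTB competitive cysteine chemoproteomics in HEK293T RIPA lysate. Lysates were treated with compound 29 or 30 at 50 or 200 µM for 4 h, then IA-DTB (500 µM, 1 h), trypsin-digested, NeutrAvidin-enriched and analysed by diaPASEF. Competition ratio = intensity DMSO / intensity compound (n=4 treated, n=64 DMSO); binding: mean log2 CR ≥ 1 and p ≤ 0.05 plus QC filters. Target is the cysteine site.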

Row | Target | log2 mean competition ratio
1 | MYO1E C586 (UniProt Q12965) | 0.187
2 | MRPL38 C252 (UniProt Q96DV4) | -0.301
3 | MYBBP1A_(C614,C614,C623,C623) (UniProt Q9BQG0) | 0.058
4 | MSH6 C1337 (UniProt P52701) | 0.00142
5 | MRPL27 C88 (UniProt Q9P0M9) | 0.0139
6 | NAIF1 C266 (UniProt Q69YI7) | 0.426
7 | MYO18A C811 (UniProt Q92614) | -0.215
8 | MRPL43 C91 (UniProt Q8N983) | -0.0573
9 | MTMR2 C284 (UniProt Q13614) | -0.0164
10 | MYH14 C954 (UniProt Q7Z406) | -0.183
11 | MTMR2 C7 (UniProt Q13614) | 0.0415
12 | MTMR3 C621 (UniProt Q13615) | -0.0934
13 | MYO9A C1973 (UniProt B2RTY4) | -0.162
14 | MTM1 C53 (UniProt Q13496) | -0.214
15 | MSH2 C199 (UniProt P43246) | -0.0487
16 | MTA1 C229 (UniProt Q13330) | -0.117
17 | MTMR12 C67 (UniProt Q9C0I1) | 0.00864
18 | NARF C252 (UniProt Q9UHQ1) | -0.43
19 | MYO9B C1876 (UniProt Q13459) | 0.347

Row | Target | log2 mean competition ratio
20 | MYCBP2 C4558 (UniProt O75592) | -0.0219
21 | MRPS9 C233 (UniProt P82933) | -0.24
22 | MYH14 C115 (UniProt Q7Z406) | 0.0505
23 | MTHFSD C267 (UniProt Q2M296) | -0.279
24 | MRPL35 C150 (UniProt Q9NZE8) | 0.127
25 | MYCBP2 C222 (UniProt O75592) | 0.435
26 | MYL6 C32 | 0.494
27 | MTM1 C242 (UniProt Q13496) | -0.201
28 | MTG2 C175 (UniProt Q9H4K7) | -0.265
29 | MRPL44 C53 (UniProt Q9H9J2) | -0.174
30 | MYO6 C668 (UniProt Q9UM54) | 0.324
31 | MTHFD1L C302 | -0.0302
32 | MRPS5 C324 (UniProt P82675) | 0.351
33 | MSTO1 C46 (UniProt Q9BUK6) | -0.0804
34 | MRPL44 C96 (UniProt Q9H9J2) | 0.123
35 | MRPS18A C186 (UniProt Q9NVS2) | 0.332
36 | MUTYH C514 | 0.0189
37 | NAA30 C195 (UniProt Q147X3) | 0.29
38 | MTRF1L C274 (UniProt Q9UGC7) | -0.403

same assay, conditions: 200 µM; treatment time: 4 h; cell line lysate: HEK293T

Row | Target | log2 mean competition ratio
39 | MYO1E C586 (UniProt Q12965) | -0.29
40 | MRPL38 C252 (UniProt Q96DV4) | -0.109
41 | MYBBP1A_(C614,C614,C623,C623) (UniProt Q9BQG0) | -0.128
42 | MSH6 C1337 (UniProt P52701) | 0.0493
43 | MRPL27 C88 (UniProt Q9P0M9) | -0.0685
44 | NAIF1 C266 (UniProt Q69YI7) | -0.339
45 | MYO18A C811 (UniProt Q92614) | 0.116
46 | MRPL43 C91 (UniProt Q8N983) | -0.128
47 | MTMR2 C284 (UniProt Q13614) | -0.0674
48 | MYH14 C954 (UniProt Q7Z406) | 0.418
49 | MTMR2 C7 (UniProt Q13614) | -0.239
50 | MTMR3 C621 (UniProt Q13615) | 0.0298
51 | MYO9A C1973 (UniProt B2RTY4) | -0.108
52 | MTM1 C53 (UniProt Q13496) | -0.45
53 | MSH2 C199 (UniProt P43246) | -0.267
54 | MTA1 C229 (UniProt Q13330) | 0.017
55 | MTMR12 C67 (UniProt Q9C0I1) | -0.495
56 | NARF C252 (UniProt Q9UHQ1) | 0.133
57 | MYO9B C1876 (UniProt Q13459) | 0.163

Row | Target | log2 mean competition ratio
58 | MYCBP2 C4558 (UniProt O75592) | -0.0667
59 | MRPS9 C233 (UniProt P82933) | -0.195
60 | MYH14 C115 (UniProt Q7Z406) | -0.321
61 | MTHFSD C267 (UniProt Q2M296) | -0.193
62 | MRPL35 C150 (UniProt Q9NZE8) | 0.348
63 | MYCBP2 C222 (UniProt O75592) | 0.318
64 | MYL6 C32 | 0.122
65 | MTM1 C242 (UniProt Q13496) | -0.201
66 | MTG2 C175 (UniProt Q9H4K7) | 0.485
67 | MRPL44 C53 (UniProt Q9H9J2) | -0.0476
68 | MYO6 C668 (UniProt Q9UM54) | -0.409
69 | MTHFD1L C302 | 0.246
70 | MRPS5 C324 (UniProt P82675) | 0.171
71 | MSTO1 C46 (UniProt Q9BUK6) | 0.331
72 | MRPL44 C96 (UniProt Q9H9J2) | 0.0147
73 | MRPS18A C186 (UniProt Q9NVS2) | 0.173
74 | MUTYH C514 | 0.437
75 | NAA30 C195 (UniProt Q147X3) | 0.48
76 | MTRF1L C274 (UniProt Q9UGC7) | 0.029

compound: ClCC(=O)N[C@H]1CCCc2ccccc12; assay: as above; settings: 50 µM; treatment time: 4 h; cell line lysate: HEK293T
Protocol: as §1

Row | Target | log2 mean competition ratio
77 | MYO1E C586 (UniProt Q12965) | 0.213
78 | MRPL38 C252 (UniProt Q96DV4) | -0.131
79 | MYBBP1A_(C614,C614,C623,C623) (UniProt Q9BQG0) | -0.0284
80 | MSH6 C1337 (UniProt P52701) | 0.0528
81 | MRPL27 C88 (UniProt Q9P0M9) | -0.187
82 | NAIF1 C266 (UniProt Q69YI7) | 0.142
83 | MYO18A C811 (UniProt Q92614) | -0.594
84 | MRPL43 C91 (UniProt Q8N983) | 0.0615
85 | MTMR2 C284 (UniProt Q13614) | -0.288
86 | MYH14 C954 (UniProt Q7Z406) | -0.309
87 | MTMR2 C7 (UniProt Q13614) | 0.39
88 | MTMR3 C621 (UniProt Q13615) | -0.0231
89 | MYO9A C1973 (UniProt B2RTY4) | -0.207
90 | MTM1 C53 (UniProt Q13496) | -0.394
91 | MSH2 C199 (UniProt P43246) | 0.121
92 | MTA1 C229 (UniProt Q13330) | -0.111
93 | MTMR12 C67 (UniProt Q9C0I1) | -0.421
94 | NARF C252 (UniProt Q9UHQ1) | -0.48
95 | MYO9B C1876 (UniProt Q13459) | -0.143

Row | Target | log2 mean competition ratio
96 | MYCBP2 C4558 (UniProt O75592) | 0.0398
97 | MRPS9 C233 (UniProt P82933) | 0.24
98 | MYH14 C115 (UniProt Q7Z406) | -0.379
99 | MTHFSD C267 (UniProt Q2M296) | -0.135
100 | MRPL35 C150 (UniProt Q9NZE8) | 0.246
101 | MYCBP2 C222 (UniProt O75592) | 0.29
102 | MYL6 C32 | 0.279
103 | MTM1 C242 (UniProt Q13496) | -0.256
104 | MTG2 C175 (UniProt Q9H4K7) | -0.301
105 | MRPL44 C53 (UniProt Q9H9J2) | -0.14
106 | MYO6 C668 (UniProt Q9UM54) | 0.705
107 | MTHFD1L C302 | -0.139
108 | MRPS5 C324 (UniProt P82675) | 0.547
109 | MSTO1 C46 (UniProt Q9BUK6) | -0.343
110 | MRPL44 C96 (UniProt Q9H9J2) | -0.23
111 | MRPS18A C186 (UniProt Q9NVS2) | 0.458
112 | MUTYH C514 | 0.0142
113 | NAA30 C195 (UniProt Q147X3) | 0.189
114 | MTRF1L C274 (UniProt Q9UGC7) | -0.128
